Assay results from patent publication US11912664B2, “Determining small molecule-protein and protein-protein interactions” (President and Fellows of Harvard College, priority 2017, dated 2024).

Tested on: whole proteome from Jurkat and K562 cells
Assay: SIM-PAL conjugated peptide identification in whole cell proteome

SMILES | number of peptides found conjugated | conjugated peptides detected exclusively by that compound
C#CCCC1(CCNC(=O)Cc2c(C)n(C(=O)c3ccc(Cl)cc3)c3ccc(OC)cc23)N=N1 [photo-indomethacin (6)] | 34 | 
C#CCCC1(CCOc2cc(C(F)(F)F)nn2-c2ccc(S(N)(=O)=O)cc2)N=N1 [photo-celecoxib (5), 4-(5-(2-(3-(but-3-yn-1-yl)-3H-diazirin-3-yl)ethoxy)-3-(trifluoromethyl)-1H-pyrazol-1-yl)benzenesulfonamide] | 93 | 
C#CCCC1(CCOC(=O)NC2CCC(=O)NC2=O)N=N1 (stereo not shown) [photo-glutarimide 8, 2-(3-(but-3-yn-1-yl)-3H-diazirin-3-yl)ethyl (2,6-dioxopiperidin-3-yl)carbamate] |  | nine
C#CCCC1(CCOc2ccc3cc([C@H](C)C(=O)O)ccc3c2)N=N1 [photo-naproxen (4), (S)-2-(6-(2-(3-(but-3-yn-1-yl)-3H-diazirin-3-yl)ethoxy)naphthalen-2-yl)propanoic acid] | 85 | 
